Assay results: article doi:10.1101/2020.11.08.373522
No constants are given. Whether binding was seen depends on the method and setting. Binding seen in cells or lysates may run through a third protein. These calls come from enrichment with a bait or labelling near it, and not all partners need be listed.

By UniProt entry, the sequences of proteins in these tests, tags left out.
UniProt P06634: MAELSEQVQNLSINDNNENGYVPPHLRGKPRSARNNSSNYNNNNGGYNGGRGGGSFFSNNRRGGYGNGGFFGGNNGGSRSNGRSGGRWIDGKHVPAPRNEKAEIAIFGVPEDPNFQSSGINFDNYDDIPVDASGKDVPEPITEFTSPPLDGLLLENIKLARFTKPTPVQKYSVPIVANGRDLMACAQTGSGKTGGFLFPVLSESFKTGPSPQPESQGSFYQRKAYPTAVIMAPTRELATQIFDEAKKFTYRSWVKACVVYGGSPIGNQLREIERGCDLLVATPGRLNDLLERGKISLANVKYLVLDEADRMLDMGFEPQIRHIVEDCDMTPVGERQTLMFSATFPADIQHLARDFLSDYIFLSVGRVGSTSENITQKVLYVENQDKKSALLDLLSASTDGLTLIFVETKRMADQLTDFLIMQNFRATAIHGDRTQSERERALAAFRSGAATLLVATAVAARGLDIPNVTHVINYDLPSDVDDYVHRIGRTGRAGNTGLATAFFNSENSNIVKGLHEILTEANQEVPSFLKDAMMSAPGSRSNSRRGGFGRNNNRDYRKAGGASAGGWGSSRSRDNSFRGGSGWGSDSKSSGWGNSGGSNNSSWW

B1: SRP14 (endogenous) (protein, UniProt P38985 1-146)
chain: MANTGCLSPGAFLSKVPEFFQTANEKHITVRLTAKRLIEHDPVEGNLEFDSTNHPDYDVSKKASEISVSSRSDREYPLLIRMSYGSHDKKTKCSTVVKASELDQFWQEYSSVFKGGMQNLIKKKKKKSKNGTISKTGKKNKVAKKN
B2: SRP21 (endogenous) (protein, UniProt P32342 1-167)
chain: MSVKPIDNYITNSVRLFEVNPSQTLFSISYKPPTQKTDTKVSFRTHNSHLSLNYKFTTNKSKDVSRLLSALGPRGVSITPGKIEKIAQSKKKNNKIKESSKKIKGKSIQDIVGLATLIVNTDVEKSDPAAKKTATEPKQKANAVQNNNGNSAASKKKKNKNKGKKKR
B3: Sec65 (endogenous) (protein, UniProt P29478 1-273)
chain: MPRLEEIDDFNDIDDLDMELAELDPSLRTPIAPKITPKVVRSQDQENPAFLPGTNNNSNSNNNSSNEKEQLSFINPKTGKVERSEAISKKDLEEVKRFQVLYPCYFDINRSHKEGRRVPKELAVENPLAKTMADAVRELGILCIFEGEKCHPQDFGNPGRIRVLFKENGQLIGAATKFKGGKRQLMKAVGEYMKRHPTTIESLREIPYGPDFDNIEFKKIPRVKGFKMNEIVPLHSPFLMGHPMTKSVYETPKITAAEKSFKPPKNKYKVVRR
B4: SRP68 (endogenous) (protein, UniProt P38687 1-599)
chain: MVAYSPIIATYGNRAEQFLETDSDFAKYHAKLNKKLQHLRSRCHLVTKDTKKYSSKNKYGEINSEDYDNKTKLIGVLILLHAERDLALAETLKLRARQRGKLKKSEEKVLSTRLKKACKTADKLVNVTQNEQQWITRAQYLAFAKLVHSEYLINGKRFKRKDNAKISNNLALVFAALEHLKNLSLLAEEVVDNIVNKYQYSLKQYAGNLITTPEINNFIVERVQSDENKDDELVKLLLDNGFNMKKITTSTEDQKVTTNINWRSFNAKIIDAEVAQFLEQGLSIHPTQITQYTQRLSKLEKALDRHEFFIANHDDQDDIDEMVENSSENNQIILAYIKYNILLTSISRERDLFTHLWNQWLKLNTSLPSKLTKYKEMERIVKNLTKYLSDIMELPGVYSDDELLSQLDLCKLYFQLFLNTGCLSVLYQSKGRYMEALALYVDAYRRLENKLSEIESLDEILLPANLLSLNSVRSLQKRIENGGNSVITLAEYEKRNHGGSLGKYDLTVIEKLDSKKILPTDIQLKNLFPLKPKMLPIPSKPTLFDLAFNYITYDKQEPSASQVKDSVTETESISQTPISNEQTEGEPKKKRGFLGLFGR

Each binder was assayed against Ded1 (DEAD-box RNA helicase Ded1) (S. cerevisiae (endogenous in yeast)) (UniProt P06634) (assay: affinity purification with mass spectrometry).

binding, binds:
B1
B2
B3
B4
